This assay deals with BDF1 mice, P388 leukemia ip, median survival T/C. The experiment in a line: NCI In Vivo Anticancer Drug Screen. Data for tumor model P388 Leukemia (intraperitoneal) in B6D2F1 (BDF1) mice. To be noted: T/C endpoint: median survival time, higher T/C = longer survival. An outline of the steps: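 Antitumour effect was judged in vivo: survival in drug-treated mice, normalised to that of vehicle-dosed controls, gives the reported T/C.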

[1] abbreviates: dose: 200.0 mg/kg/injection, schedule: Q01DX005 (ip), vehicle: Klucel (hydroxypropylcellulose) (HPC).
The mark [2] stands for this setting: dose: 200.0 mg/kg/injection, schedule: Q01DX009 (ip), vehicle: Klucel (hydroxypropylcellulose) (HPC).
Setting [3] is: dose: 400.0 mg/kg/injection, schedule: Q01DX005 (ip), vehicle: Klucel (hydroxypropylcellulose) (HPC).

The list does not hold the whole screen: it gathers tests that were run many times, whatever their T/C, doses with no T/C, and many T/C values between a quarter and a half above the control. Further doses and runs are listed elsewhere. T/C: endpoint of the treated group in % of that of the vehicle group. Some entries give survivors of the animals treated and no T/C: the source holds a T/C of zero for them, seemingly a mark for toxic or unscored doses. Some survivor counts are full or nearly so, which does not show that the dose was tolerated: survival well below the control is almost never listed, so the zero probably covers shortened survival too. Counts of survivors are from the toxicity check (mostly the fifth day) where no day follows; animals may have died later. Schedules are NCI's codes, read here as Q, the interval in days (D) or hours (H), X, the number of doses. Some doses were run more than once; the results are listed from low to high. Signs of the kind (2×) stand for listed records that agree. Where survival is the endpoint, this PubChem deposit counts one and a half times the control or more as active, and values a quarter to a half above the control carry no call in these data; other NCI protocols may use other cut-offs. Some T/C values carry the count of animals alive at the toxicity check (mostly the fifth day); where none is given, no animal had died by that day.

On to `CN(Cc1cnc2nc(N)nc(N)c2n1)c1c(Cl)cc(C(=O)NC(CCC(=O)O)C(=O)O)cc1Cl` (centres undefined), for which the T/C runs as follows: (dose: 100.0 mg/kg/injection, schedule: Q04DX003 (ip), vehicle: Klucel (hydroxypropylcellulose) (HPC), evaluated on day 35) 167 and 196 % of control; (dose: 200.0 mg/kg/injection, schedule: Q01DX001 (ip), vehicle: Klucel (hydroxypropylcellulose) (HPC), evaluated on day 30) 106, 117 (2×), 119, 122, 125, 139, 142, 143, 146, 150 (2×), 157, 158 (2×), 160, 163 (3×), 165, 168, 173, 176, 182, 184, 189, 191, 196, 197 % of control; (dose: 200.0 mg/kg/injection, schedule: Q01DX001 (ip), vehicle: Klucel (hydroxypropylcellulose) (HPC), evaluated on day 35) 125 and 155 % of control; under setting [1], 100, 132, 172, 180, 190, 191, 195 (2×), 203, 223, 227, 232, 236, 259 % of control; under setting [2], 90, 93 (2×), 100, 169, 245 % of control; (dose: 200.0 mg/kg/injection, schedule: Q04DX002 (ip), vehicle: Klucel (hydroxypropylcellulose) (HPC), evaluated on day 30) 124, 132, 145, 148, 157, 158, 159, 163, 165, 174, 175, 177 (3×), 178 (2×), 182, 183, 189, 193 (2×), 203 (2×), 204, 205, 211 (2×), 216, 221, 225, 231, 247 % of control (2×). The T/C reads like this: (dose: 200.0 mg/kg/injection, schedule: Q04DX002 (ip), vehicle: Klucel (hydroxypropylcellulose) (HPC), evaluated on day 35) 198 % of control; (dose: 200.0 mg/kg/injection, schedule: Q04DX003 (ip), vehicle: Klucel (hydroxypropylcellulose) (HPC), evaluated on day 30) 140 (2×), 146, 150 (2×), 169, 171, 182, 185, 186, 189 [5 of 6 alive], 190, 197, 200, 204, 205, 210 (2×), 211, 223, 226 (2×), 229, 232 (2×), 238, 247, 248, 250, 252, 256, 258, 263, 275 % of control; (dose: 200.0 mg/kg/injection, schedule: Q04DX003 (ip), vehicle: Klucel (hydroxypropylcellulose) (HPC), evaluated on day 35) 232 and 245 % of control [2 of 3 alive]; (dose: 400.0 mg/kg/injection, schedule: Q01DX001 (ip), vehicle: Klucel (hydroxypropylcellulose) (HPC), evaluated on day 30) 114, 115, 118, 122, 143, 152, 155 (2×), 156, 157, 158, 165, 169, 176, 178, 180, 185, 187 (2×), 190, 197, 198, 199, 200, 201 (2×), 206, 213, 252 % of control; (dose: 400.0 mg/kg/injection, schedule: Q01DX001 (ip), vehicle: Klucel (hydroxypropylcellulose) (HPC), evaluated on day 35) 133 [2 of 3 alive] and 169 % of control; under setting [3], 250 % of control. The T/C reads like this: (dose: 400.0 mg/kg/injection, schedule: Q04DX002 (ip), vehicle: Klucel (hydroxypropylcellulose) (HPC), evaluated on day 30) 89, 148 [5 of 6 alive], 153 (2×), 162, 170 (2×), 174, 178, 180, 182, 184, 202, 206 [2 of 2 alive], 210, 212, 213, 223, 224, 228, 233, 238, 239, 241, 243, 253, 259 [5 of 6 alive], 270, 275, 276, 281, 284, 306 % of control; (dose: 400.0 mg/kg/injection, schedule: Q04DX002 (ip), vehicle: Klucel (hydroxypropylcellulose) (HPC), evaluated on day 35) 299 % of control; (dose: 400.0 mg/kg/injection, schedule: Q04DX003 (ip), vehicle: Klucel (hydroxypropylcellulose) (HPC), evaluated on day 30) 123, 139 (2×), 144, 148, 157 (2×), 162, 176, 186, 204, 208, 208 [5 of 6 alive], 210, 215, 226, 228 (2×), 229 (2×), 230, 231, 247, 251, 252, 254 (2×), 260, 265, 267, 272, 276 [5 of 6 alive], 282 % of control; (dose: 400.0 mg/kg/injection, schedule: Q04DX003 (ip), vehicle: Klucel (hydroxypropylcellulose) (HPC), evaluated on day 35) 309 and 312 % of control. In addition, the survivor count was 3 of 3 (dose: 200.0 mg/kg/injection, schedule: Q01DX001 (ip), vehicle: Klucel (hydroxypropylcellulose) (HPC)); 0 of 6, 1 of 3, 2 of 6, 2 of 3, 5 of 6, 3 of 3, 6 of 6 (2×) under setting [1]; 1 of 3, 3 of 6, 2 of 3, 4 of 6, 5 of 6, 3 of 3, 6 of 6 under setting [2]; 3 of 3 (dose: 400.0 mg/kg/injection, schedule: Q01DX001 (ip), vehicle: Klucel (hydroxypropylcellulose) (HPC)); 0 of 3, 1 of 6, 1 of 3, 2 of 6, 2 of 3, 4 of 6 (2×), 5 of 6, 3 of 3, 6 of 6 under setting [3]; 0 of 3, 1 of 3, 2 of 6, 3 of 6, 2 of 3, 4 of 6, 5 of 6, 3 of 3, 6 of 6 (dose: 400.0 mg/kg/injection, schedule: Q01DX009 (ip), vehicle: Klucel (hydroxypropylcellulose) (HPC)). Besides, the survivor count by setting is: (dose: 400.0 mg/kg/injection, schedule: Q01DX009 (ip), vehicle: saline with Tween-80) 5 of 6; (dose: 400.0 mg/kg/injection, schedule: Q04DX003 (ip), vehicle: Klucel (hydroxypropylcellulose) (HPC)) 2 of 3.

Values taken from PubChem BioAssay AID328 (DTP/NCI, 2004).
